Values quoted from earlier work, collected in patent US9494592B2, “Reaction-based fluorescent probes for sulfane sulfur and the application in bioimaging” (Washington State University, priority 2013, dated 2016).
For at least one compound, name, drawing or mass did not settle the structure.

Conditions: excited at 490 nm in 0.1 N NaOH; cited from earlier work

For `O=C1OC2(c3ccc(O)cc3Oc3cc(O)ccc32)c2ccccc21` [fluorescein], the “quantum efficiency of standard” value is given as 0.85.
